This assay is described as follows: qHTS Assay for Lipid Storage Modulators in Drosophila S3 Cells.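 On cell number change: cells counted by Cell Tracker Red CMTPX staining in the red channel.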 As to conditions: BODIPY lipid droplet fluorescence, 18-24 h; for cell number change: measured here: cell count max response, cells fed with added oleic acid. Put shortly:
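Drosophila S3 cells loaded with oleic acid (400 uM, as added) and compounds at several concentrations; lipid droplets imaged by 488-nm laser-scanning cytometry, 500–530 nm intensity and object ratio to cell channel. Percent activity normalized to 20 uM Triacsin C.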
(In general: Quantitative high-throughput screening tests each substance at several concentrations.)

Where [1] appears, read: measured here: cell number channel AC50, cells fed with added oleic acid.
Where [2] appears, read: measured here: lipid fluorescence (Fed channel) AC50, cells fed with added oleic acid.

Some of the results follow. These are further read-outs of the screen, such as a control signal, another cell line or another target. No call is given for them. The list favours compounds with an active or inconclusive main result. Words in brackets tell the shape of the fitted curve; partial curves, single points and poor fits give uncertain potencies.

As usually defined, the AC50 is the concentration giving half of the maximal activity seen. Read a low AC50 as greater potency. In the case of `Cn1c(CN2CCOCC2)nc2cc(NC(=O)c3ccccc3Cl)ccc21`, the cell number change worked out at 88%. Also, under setting [1], the AC50 was 23.1 µM [rising, partial curve]. In addition, the AC50 under setting [2] is 0.58 µM [falling, single point].
For the molecule `CC(C)c1[nH]nc2c1C(c1cccs1)C(C#N)=C(N)O2` (stereo not drawn), the cell number change is -20.7%. Besides, the half-maximal activity concentration (AC50) under setting [2] is 18.4 µM [falling, single point].
Take `Cc1ccc(-c2nc(N)sc2C)cc1`: the cell number change is -2.8%.
Regarding `Cc1ccc(NC(=O)NC2C(NC(=O)Nc3ccc(C)cc3)N(C)C(=O)N2C)cc1` (stereo not drawn), the cell number change worked out at 3.56%. The AC50 under setting [2] was 0.58 µM [rising, single point].
`CC(C)(C)OC(=O)NNC(=O)NC12CC3CC(CC(C3)C1)C2`: the cell number change is -53.1%. The AC50 under setting [1] was 16.4 µM [falling, single point]. Under setting [2], the AC50 is 0.116 µM [rising, full curve, poor fit].
Take `O=C(N/N=C/c1ccc([N+](=O)[O-])s1)c1ccncc1`: the cell number change was -4.48%.
As to `CCOC(=O)N1CCC(=NNC(=O)Cn2ccc(C(F)(F)F)n2)CC1`, the cell number change was determined as 60.4%. In addition, the AC50 under setting [1] was 32.6 µM [rising, single point].
For `CCc1nc2ccccc2c2nc3ccccc3n12`, the cell number change is 48.4%. The AC50 under setting [1] was 1.84 µM [rising, single point]. In addition, the AC50 under setting [2] was 0.731 µM [rising, single point].
As for `COc1ccc(OCC(=O)Nc2cc(OC)ccc2N2CCCCC2)cc1`, the cell number change was found to be 1.71%. For the same molecule, the AC50 under setting [2] is 3.66 µM [rising, full curve].
`C=CC[n+]1c(/C=C2\C=Cc3cc(C)ccc3N2CC)ccc2ccccc21`: the cell number change was -12.9%. Under setting [2], the AC50 is 0.13 µM [rising, full curve, poor fit].
Take `O=C(COc1cc(O)c2c(=O)cc(-c3ccccc3)oc2c1)c1ccc(F)cc1`: the cell number change is -21.9%. For the same molecule, under setting [2], the half-maximal activity concentration (AC50) is 4.11 µM [falling, full curve].
As for `O=C(c1ccco1)N1CCN(S(=O)(=O)c2ccc(S(=O)(=O)NC3CCCC3)cc2)CC1`, the AC50 under setting [1] is 6.51 µM [rising, single point].
Regarding `O=C(Cn1ncc2c([nH]c3ccccc32)c1=O)N1CCc2ccccc2C1`, the cell number change amounted to 19.1%. Under setting [2], the AC50 was 29.1 µM [rising, single point].
As for `CC1(C)CC(=O)C2=C(C1)c1c(ccc3ccccc13)NC2c1ccco1` (stereo not drawn), the cell number change is -12.2%. The AC50 under setting [2] was 16.4 µM [rising, partial curve].
`COc1ccccc1S(=O)(=O)NCc1ccc(C(=O)N(C)Cc2ccc(F)cc2)cc1`: the cell number change came to 2.6%. Further, the AC50 under setting [1] was 6.51 µM [falling, single point].
In the case of `O=C(CSc1cccc[n+]1[O-])Nc1cc(S(=O)(=O)N2CCOCC2)ccc1N1CCOCC1`, the cell number change amounted to 17.7%.
In the case of `COc1ccc(-n2c(=S)[nH]c3cc(C(=O)Nc4cc(C(N)=O)ccc4OC)ccc3c2=O)c(OC)c1`, the cell number change turned out to be 77.8%. The AC50 under setting [1] is 18.4 µM [rising, partial curve]. Moreover, the AC50 under setting [2] is 8.2 µM [rising, partial curve].
As to `Cc1ccsc1C(=O)NCc1ccc(F)cc1`, the cell number change was -4.78%. Also, the AC50 under setting [2] is 6.51 µM [falling, single point].
In the case of `COc1ccccc1CNc1cc(C)ccn1`, the cell number change was 27.9%. Moreover, the AC50 under setting [2] was 0.58 µM [rising, single point].
As to `O=C1CN(c2nc(-c3ccccc3)c3cc(Br)ccc3n2)c2ccccc2N1`, the AC50 under setting [1] is 2.31 µM [rising, single point].
With `CCOC(=O)c1ccccc1NC(=O)COC(=O)CC1CCCCC1`, the cell number change was found to be 34.1%. The AC50 under setting [1] is 11.6 µM [rising, partial curve, poor fit]. Further, under setting [2], the AC50 is 25.9 µM [rising, partial curve].
As to `COc1cc(C(=O)NCc2cn3cccc(C)c3n2)cc(OC)c1OC`, the cell number change amounted to 72%. In addition, the AC50 under setting [1] is 20.6 µM [rising, single point]. Besides, the AC50 under setting [2] was 29.1 µM [rising, single point].
For `CN1CCN(C2CCCCC2NS(=O)(=O)c2ccccc2)CC1` (stereo not drawn), the cell number change was -2.36%. Further, the AC50 under setting [2] was 1.3 µM [falling, full curve].
As for `CC1CCc2c(sc3nn[nH]c(=O)c23)C1` (stereo not drawn), the cell number change is -22.8%. Also, under setting [2], the AC50 was 0.116 µM [falling, full curve, poor fit].
Consider `O=C(Nc1ccc(S(=O)(=O)N2CCCC2)cc1)c1cc(F)c(F)cc1Cl`, for which the cell number change was -14.7%. In addition, the AC50 under setting [2] was 0.116 µM [falling, full curve, poor fit].
For `Cc1ccc(C)c(NC(=O)COC(=O)CNC(=O)C2CCCCC2)c1`, the cell number change was determined as 12.1%. Under setting [2], the AC50 was 0.82 µM [rising, full curve].
In the case of `O=C(CCSc1nccn1Cc1ccccc1)N1CCOCC1`, the cell number change was -78.8%. Further, under setting [1], the AC50 is 25.9 µM [falling, partial curve, poor fit]. In addition, the AC50 under setting [2] is 0.259 µM [falling, full curve, poor fit].
As for `Cc1cccc(OCC(=O)N(Cc2ccco2)C2CCS(=O)(=O)C2)c1C` (stereo not drawn), the cell number change stood at 12.4%. For the same molecule, under setting [2], the AC50 is 10.3 µM [rising, partial curve, poor fit].
In the case of `NC(=O)NC(=O)COC(=O)CC12CC3CC(CC(C3)C1)C2`, the cell number change was -12%. Also, the concentration at half-maximal activity (AC50) under setting [2] is 6.51 µM [rising, partial curve].
Take `COc1ccc(F)cc1C1=CC(=O)C[C@H](c2ccc3c(c2)OCO3)C1`: the cell number change amounted to 4.59%.
Turning to `CCOc1ccc(NC(=O)Nc2cccc(C)n2)cc1`, the cell number change was -30.6%. Under setting [1], the AC50 is 29.1 µM [falling, single point].
For `Cc1ccccc1OCCSc1nc2ccccc2n1CCC(=O)O`, the cell number change was -12.9%.
As to `Nc1cc[n+](CC(=O)c2ccc3c(c2)OCCO3)cc1`, the cell number change was -22.4%.
For the molecule `O=C(NNC(=O)c1cccnc1SCc1cccc([N+](=O)[O-])c1)c1ccccn1`, the cell number change was -8.57%. The AC50 under setting [2] is 32.6 µM [falling, single point].
For `CCOc1ccc(C(O)Cn2c(=N)n(CCN3CCCCC3)c3ccccc32)cc1` (stereo not drawn), the cell number change was -34.4%. Further, the AC50 under setting [1] is 29.1 µM [falling, single point]. Also, the AC50 under setting [2] was 29.1 µM [falling, single point].
Take `COc1ccc(-c2cc(C(=O)Nc3cc(C)n(Cc4ccc(Cl)cc4)n3)no2)cc1OC`: the cell number change was -3.48%.
Take `O=S(=O)(c1ccc2c(c1)OCCO2)N1CCC(n2nnc3cc(C(F)(F)F)ccc32)CC1`: the cell number change is -22.4%.
For `Cc1ccc(O)c(N=CC2=C(O)c3ccccc3C2=O)c1`, the cell number change was 48.3%. The AC50 under setting [1] was 11.6 µM [rising, partial curve].
Take `O=C(COc1ncnc2ccccc12)NCC1CCCO1` (stereo not drawn): the cell number change stood at 62.7%. For the same molecule, the AC50 under setting [2] is 0.164 µM [falling, partial curve, poor fit].
Take `COc1ccc(CC(=O)NCc2ccc(Cl)cc2)cc1S(=O)(=O)N1CCOCC1`: the cell number change is -7.37%. For the same molecule, under setting [2], the AC50 is 20.6 µM [rising, single point].
As for `CC(C)(C)c1ccc(OCc2cnc(Cl)s2)cc1`, the cell number change is -21.5%.
Take `O=C(CCCn1c(=O)[nH]c2ccccc2c1=O)NC1CCCCCC1`: the cell number change was -55.6%. Further, the AC50 under setting [1] is 18.4 µM [falling, single point]. The AC50 under setting [2] was 29.1 µM [falling, single point].
Take `C=CCN1C(=O)C(C)S/C1=N\S(=O)(=O)c1ccc(Cl)cc1` (stereo not drawn): the cell number change was -16.7%. Moreover, the half-maximal activity concentration (AC50) under setting [1] was 6.51 µM [falling, single point].
On to `CCOc1cc2c(cc1/C=C1/NC(=O)N(CC(=O)OC)C1=O)OCO2`, for which the cell number change was -44.4%. Also, under setting [1], the AC50 was 0.0058 µM [falling, full curve, poor fit]. Also, the AC50 under setting [2] was 7.31 µM [falling, partial curve].
Take `COc1ccc(-n2nc3c(c2NC(=O)c2ccc(N4C(=O)CCC4=O)cc2)CSC3)cc1`: the cell number change was -19.2%. Also, the half-maximal activity concentration (AC50) under setting [2] was 2.06 µM [rising, partial curve].
As to `COc1ccc(CCN(C)C(=O)COc2ccc(N(C)S(=O)(=O)c3ccc(C)cc3)cc2)cc1OC`, the cell number change turned out to be 14.5%. Moreover, the AC50 under setting [1] was 3.26 µM [rising, single point]. The half-maximal activity concentration (AC50) under setting [2] was 1.64 µM [rising, partial curve].
Take `COc1ccccc1OCC(=O)Nc1ccc(S(=O)(=O)N2CCCCCC2)cc1`: under setting [2], the AC50 is 0.00461 µM [rising, full curve, poor fit].
`Cc1ccc(C)n1-c1cccc(NC(=O)c2ccccc2)c1`: the cell number change was found to be 5.7%. Further, the AC50 under setting [2] is 11.6 µM [rising, partial curve].
Turning to `COc1ccc2nc(SCC(=O)NC3CC3)c(C#N)cc2c1`, the cell number change was determined as 117%. The AC50 under setting [1] is 14.6 µM [rising, partial curve].
With `COC(=O)/C(=C\Nc1ccccc1)NC(=O)c1ccc(Cl)cc1Cl`, the cell number change stood at 45.3%. For the same molecule, the AC50 under setting [1] is 29.1 µM [rising, single point].
For `Cc1ccc(-n2nnnc2-c2nc3ccccc3s2)cc1`, the cell number change amounted to 25.7%.
As to `Cc1ccc(-n2c(COc3cccc(C)c3)n[nH]c2=S)cc1`, the cell number change turned out to be 11.1%.
Consider `Cc1ccccc1CNC(=O)C1CCC(=O)N(C2CCCCCC2)C1` (stereo not drawn), for which, under setting [2], the AC50 was 6.51 µM [rising, single point].
As for `COc1cccc(C(=O)NCCS(=O)(=O)NCCCc2ccccc2)c1`, the cell number change amounted to 49.7%. Also, the half-maximal activity concentration (AC50) under setting [1] is 13 µM [rising, partial curve, poor fit].
In the case of `COc1ccc(OC)c(NC(=O)CN2CCC(C(=O)c3ccc(C)cc3)CC2)c1`, the cell number change was -2.71%. Also, the AC50 under setting [2] was 5.8 µM [rising, full curve].
Consider `CN1CCC(=NNC(=O)CN(c2cccc([N+](=O)[O-])c2)S(=O)(=O)c2ccccc2)CC1`, for which the cell number change is -23.8%. Besides, the half-maximal activity concentration (AC50) under setting [2] is 6.51 µM [falling, single point].
Turning to `CCc1ccccc1NC(=O)c1ccc(Cn2cc([N+](=O)[O-])cn2)cc1`, the cell number change was 19.4%. Also, the AC50 under setting [1] was 0.116 µM [rising, full curve, poor fit].
With `O=C(O)c1ccc(N2CCCC2=O)cc1`, the AC50 under setting [2] is 0.651 µM [rising, single point].
With `CCOCCCN(C(=O)CNC(=O)c1ccco1)C(C(=O)NC1CCCC1)c1cccc(OC)c1` (stereo not drawn), the cell number change is -36.5%. Also, the AC50 under setting [1] was 0.259 µM [falling, full curve].
With `O=C(C=C1CCN(c2ncc(C(F)(F)F)cc2Cl)CC1)NNC(=O)Nc1ccccc1`, the cell number change was -19.9%. Also, under setting [1], the AC50 is 4.11 µM [falling, full curve, poor fit]. In addition, under setting [2], the AC50 is 6.51 µM [falling, single point].
Turning to `CC(=O)Nc1ccc(S(=O)(=O)N2CCCC(C(=O)N3CCN(c4ccccc4)CC3)C2)cc1` (stereo not drawn), the cell number change was -54.1%. In addition, under setting [1], the concentration at half-maximal activity (AC50) was 16.4 µM [falling, partial curve].

Values taken from PubChem BioAssay AID2685 (National Center for Advancing Translational Sciences (NCATS), 2010).
